The text below walks through data of publication PMC9217730.

By UniProt entry, the sequences of proteins in these tests, tags left out.
UniProt Q96EB6: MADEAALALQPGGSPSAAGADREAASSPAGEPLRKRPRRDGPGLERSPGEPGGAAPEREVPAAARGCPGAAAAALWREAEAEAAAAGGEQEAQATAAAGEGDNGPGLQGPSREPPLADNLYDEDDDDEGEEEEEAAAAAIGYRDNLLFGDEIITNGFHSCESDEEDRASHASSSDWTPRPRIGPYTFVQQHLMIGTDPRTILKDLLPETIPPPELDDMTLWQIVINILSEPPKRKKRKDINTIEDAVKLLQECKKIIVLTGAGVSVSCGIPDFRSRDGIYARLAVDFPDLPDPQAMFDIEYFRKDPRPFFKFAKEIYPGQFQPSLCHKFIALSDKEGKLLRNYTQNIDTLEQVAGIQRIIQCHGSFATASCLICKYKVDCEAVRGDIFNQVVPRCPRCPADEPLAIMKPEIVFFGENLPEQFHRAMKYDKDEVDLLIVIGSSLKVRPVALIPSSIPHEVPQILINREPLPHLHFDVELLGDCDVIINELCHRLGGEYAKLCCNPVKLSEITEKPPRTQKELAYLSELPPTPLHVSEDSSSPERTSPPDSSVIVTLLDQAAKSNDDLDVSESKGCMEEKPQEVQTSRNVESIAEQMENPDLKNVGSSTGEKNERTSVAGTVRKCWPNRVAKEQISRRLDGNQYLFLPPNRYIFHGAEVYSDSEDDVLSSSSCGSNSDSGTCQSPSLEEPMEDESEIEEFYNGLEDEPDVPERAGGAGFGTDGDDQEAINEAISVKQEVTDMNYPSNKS

This experiment has as its target HA-SIRT1 (NAD-dependent deacetylase Sirtuin 1, full-length) (human) (UniProt Q96EB6). Nature of the experiment: co-IP.

These are yes or no findings as the source states them, for the method shown. In cells and extracts the contact can be indirect. Some binding calls cover weakened binding; strength is not graded here.

For the substance “Flag-NSP14 (SARS-CoV-2 nonstructural protein 14, full-length) (from UniProt P0DTD1 5926-6452)”, the binding entry is “binds”.
